Drawing on PMC3021530, this text covers binding for two substances.

By UniProt entry, the sequences of proteins in these tests, tags left out.
UniProt O00255: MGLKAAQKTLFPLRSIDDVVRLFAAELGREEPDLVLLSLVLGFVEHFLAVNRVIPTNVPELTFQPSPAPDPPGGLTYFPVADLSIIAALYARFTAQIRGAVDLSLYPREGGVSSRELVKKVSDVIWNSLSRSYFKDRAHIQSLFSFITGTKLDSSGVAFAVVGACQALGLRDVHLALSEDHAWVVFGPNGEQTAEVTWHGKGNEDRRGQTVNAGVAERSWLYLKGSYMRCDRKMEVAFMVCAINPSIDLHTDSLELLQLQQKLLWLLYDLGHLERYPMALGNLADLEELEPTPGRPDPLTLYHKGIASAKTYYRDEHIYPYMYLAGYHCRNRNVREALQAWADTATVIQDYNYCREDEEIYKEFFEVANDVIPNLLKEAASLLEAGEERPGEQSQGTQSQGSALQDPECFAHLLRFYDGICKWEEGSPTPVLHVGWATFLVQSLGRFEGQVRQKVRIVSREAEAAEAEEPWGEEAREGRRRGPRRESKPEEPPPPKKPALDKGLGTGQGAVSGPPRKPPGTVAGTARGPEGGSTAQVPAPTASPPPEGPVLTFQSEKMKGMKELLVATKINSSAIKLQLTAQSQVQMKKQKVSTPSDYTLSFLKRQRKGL
UniProt Q9UMN6: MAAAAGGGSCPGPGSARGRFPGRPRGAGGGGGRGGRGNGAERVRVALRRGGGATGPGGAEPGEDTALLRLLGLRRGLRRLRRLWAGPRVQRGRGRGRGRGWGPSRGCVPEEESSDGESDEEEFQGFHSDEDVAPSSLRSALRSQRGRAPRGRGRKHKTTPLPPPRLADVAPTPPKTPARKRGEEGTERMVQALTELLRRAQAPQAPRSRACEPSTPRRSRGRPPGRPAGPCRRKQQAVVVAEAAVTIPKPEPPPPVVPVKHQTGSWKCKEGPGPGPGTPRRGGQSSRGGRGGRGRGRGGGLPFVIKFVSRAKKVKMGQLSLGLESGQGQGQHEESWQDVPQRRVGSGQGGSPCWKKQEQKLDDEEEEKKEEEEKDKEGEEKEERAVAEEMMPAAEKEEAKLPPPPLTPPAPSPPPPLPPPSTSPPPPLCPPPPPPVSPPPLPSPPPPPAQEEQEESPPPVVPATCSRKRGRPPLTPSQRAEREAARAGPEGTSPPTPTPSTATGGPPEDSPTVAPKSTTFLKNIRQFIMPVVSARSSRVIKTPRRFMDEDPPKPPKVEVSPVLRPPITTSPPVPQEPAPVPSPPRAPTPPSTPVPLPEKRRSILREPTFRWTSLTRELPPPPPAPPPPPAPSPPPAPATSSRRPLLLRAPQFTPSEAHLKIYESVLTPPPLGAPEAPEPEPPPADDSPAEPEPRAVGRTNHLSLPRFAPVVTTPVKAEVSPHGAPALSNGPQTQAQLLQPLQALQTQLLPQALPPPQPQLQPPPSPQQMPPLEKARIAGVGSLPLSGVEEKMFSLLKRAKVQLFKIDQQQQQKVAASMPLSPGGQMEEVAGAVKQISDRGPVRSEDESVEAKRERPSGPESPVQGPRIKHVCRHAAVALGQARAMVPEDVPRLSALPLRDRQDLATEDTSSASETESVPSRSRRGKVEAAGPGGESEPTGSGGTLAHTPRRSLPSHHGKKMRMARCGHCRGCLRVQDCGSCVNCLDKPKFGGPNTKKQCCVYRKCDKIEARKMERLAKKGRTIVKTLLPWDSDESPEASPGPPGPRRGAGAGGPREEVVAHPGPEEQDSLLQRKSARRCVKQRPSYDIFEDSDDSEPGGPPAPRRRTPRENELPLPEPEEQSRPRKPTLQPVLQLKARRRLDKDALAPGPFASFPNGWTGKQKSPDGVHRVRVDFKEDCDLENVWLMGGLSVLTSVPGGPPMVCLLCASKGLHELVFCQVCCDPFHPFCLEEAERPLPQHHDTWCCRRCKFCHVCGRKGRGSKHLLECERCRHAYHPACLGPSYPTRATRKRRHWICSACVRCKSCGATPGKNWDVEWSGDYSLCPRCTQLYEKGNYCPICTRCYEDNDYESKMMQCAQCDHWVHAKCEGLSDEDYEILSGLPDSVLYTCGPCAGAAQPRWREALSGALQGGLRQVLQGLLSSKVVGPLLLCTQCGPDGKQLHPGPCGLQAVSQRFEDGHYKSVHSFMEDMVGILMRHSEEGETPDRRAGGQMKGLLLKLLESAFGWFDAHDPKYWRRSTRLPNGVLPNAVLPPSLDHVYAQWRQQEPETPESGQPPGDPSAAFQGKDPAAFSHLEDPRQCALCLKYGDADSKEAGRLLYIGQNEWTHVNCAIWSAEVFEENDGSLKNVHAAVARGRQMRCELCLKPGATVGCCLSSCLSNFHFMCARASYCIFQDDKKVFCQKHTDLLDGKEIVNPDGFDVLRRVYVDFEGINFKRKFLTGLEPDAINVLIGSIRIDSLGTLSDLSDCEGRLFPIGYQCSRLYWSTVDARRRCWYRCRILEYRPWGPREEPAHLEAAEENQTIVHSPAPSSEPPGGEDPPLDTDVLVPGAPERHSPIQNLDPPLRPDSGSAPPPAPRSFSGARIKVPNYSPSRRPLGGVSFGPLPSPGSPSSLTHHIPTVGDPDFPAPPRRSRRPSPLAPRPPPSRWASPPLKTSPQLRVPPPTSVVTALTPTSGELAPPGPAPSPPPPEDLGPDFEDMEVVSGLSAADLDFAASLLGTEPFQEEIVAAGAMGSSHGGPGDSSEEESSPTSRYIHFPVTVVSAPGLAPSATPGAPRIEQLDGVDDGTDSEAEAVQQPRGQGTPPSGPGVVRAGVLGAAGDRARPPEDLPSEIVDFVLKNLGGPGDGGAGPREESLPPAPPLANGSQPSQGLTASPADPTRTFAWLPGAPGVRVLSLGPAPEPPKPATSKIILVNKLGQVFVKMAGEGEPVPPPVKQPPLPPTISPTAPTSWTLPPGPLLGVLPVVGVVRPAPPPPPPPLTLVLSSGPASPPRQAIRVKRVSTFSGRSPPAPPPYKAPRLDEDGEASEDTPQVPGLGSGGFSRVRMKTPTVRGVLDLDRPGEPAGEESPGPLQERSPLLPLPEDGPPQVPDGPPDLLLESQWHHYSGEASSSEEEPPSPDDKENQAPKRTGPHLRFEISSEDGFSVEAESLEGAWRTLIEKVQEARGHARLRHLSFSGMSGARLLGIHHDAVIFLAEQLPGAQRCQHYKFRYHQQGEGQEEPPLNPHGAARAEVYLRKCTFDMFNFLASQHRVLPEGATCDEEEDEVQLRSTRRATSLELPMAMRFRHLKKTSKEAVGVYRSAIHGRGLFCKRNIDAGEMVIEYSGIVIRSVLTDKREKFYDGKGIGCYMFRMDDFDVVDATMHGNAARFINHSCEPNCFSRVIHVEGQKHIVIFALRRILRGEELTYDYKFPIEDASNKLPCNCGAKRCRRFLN

The target in the assay is menin (endogenous, immunoprecipitated from 293T cells) (human (endogenous in 293T)) (UniProt O00255). The assay is described as follows: affinity purification with mass spectrometry; endogenous menin immunoprecipitated from 293T cells, untreated, 6 hours after 1000 Rads γ-IR or 2 hours after 25 J/m^2 UV; prominent bands excised for mass spectrometry.

These are yes or no findings as the source states them, for the method shown. In cells and extracts the contact can be indirect. A yes stands for co-enrichment or nearness to the bait. Other partners may have been found.

For “KMT2A (MLL) (from UniProt Q03164 1-3969)”, the binding result is reported as “binds”. Consider “KMT2D (MLL4 originally known as MLL2) (from UniProt Q9UMN6 1-2715)”, for which the binding entry was “binds”.
